Where two headings read alike, the source gives them in different places. The exact form of at least one protein or probe is not confirmed. For some of these results: A negative result means that nothing was seen under these conditions. For some of these results: At least one verdict was read from the data and is not stated in words by the source. For some of these results: Protein sequences can lack the tags named with them. For some of these results: The comparison behind a weaker result is the experiment's own reference, which may not be listed here. For some of these results: At least one result comes from cells or an extract, where the contact may be indirect. For some of these results: Whether high values mean tight binding is not given here for every scale.
What was measured:
Sox9/DIM+HMG (His) = target: T1, Sox9/DIM+HMG (His) (UniProt P48436); test: EMSA
T1 sequence (looked up, limits assumed): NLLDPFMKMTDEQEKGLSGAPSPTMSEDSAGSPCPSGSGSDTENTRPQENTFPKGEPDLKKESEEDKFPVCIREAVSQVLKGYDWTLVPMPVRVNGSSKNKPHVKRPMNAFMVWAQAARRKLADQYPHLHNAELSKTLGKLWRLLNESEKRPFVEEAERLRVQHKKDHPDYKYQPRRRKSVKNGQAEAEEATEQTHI

Chains of the proteins cited; added tags and fusions are not shown. Residues count along the entry.
UniProt O95863, 151-264: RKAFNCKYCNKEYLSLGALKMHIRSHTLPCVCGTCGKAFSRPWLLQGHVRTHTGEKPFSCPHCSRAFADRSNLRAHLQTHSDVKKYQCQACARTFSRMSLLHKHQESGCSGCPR

[1] = test system: Twist/bHLH+WR (His, co-expressed with E47/bHLH) + E47/bHLH; test: EMSA
[2] = test system: Twist/bHLHdeltaWR (His) + E47/bHLH; test: EMSA
Snail/ZF1-4 (His) = Snail/ZF1-4 (His) (UniProt O95863); test: EMSA
[3] = test system: Twist (endogenous, SUM1315) + Snail (endogenous, SUM1315) + Sox9 (endogenous, SUM1315); test: biotin-DNA pull-down, western blot; conditions: SUM1315 nuclear extract; 5' biotin; protein in an extract

Question: What does the source list for “GCTCAGATGGAAGCCATGTGTGC (double strand) [A2M dyad E-box]”?
Answer: binding result (Sox9/DIM+HMG (His)): no binding; binding result [1]: binds; binding result ([1]; with Snail/ZF1-4 and Sox9/DIM+HMG, slower (tetramer) band increased): binds; binding result ([2]; higher-order complex lost without WR): binds more weakly; binding result ([2]; with Snail/ZF1-4 and Sox9/DIM+HMG, higher-order complex partly recovered): binds; binding signal (fold less apparent affinity) (Snail/ZF1-4 (His); text compares with its canonical site, also stated as not binding): 100

Question: Does “GCTCAGATGGAAGCCATGTGTGC (double strand) [A2M dyad E-box, biotinylated]” bind [3]?
Answer: binds

Question: Does “GTGGCCGGCAGGTGAACCCTCA (double strand) [E-cad E-box]” bind (Sox9/DIM+HMG (His))?
Answer: no binding

Question: Does “GTGGCCGGCAGGTGAACCCTCA (double strand) [E-cad E-box]” bind ([1]; bound very poorly)?
Answer: binds more weakly

Question: Does “GTGGCCGGCAGGTGAACCCTCA (double strand) [E-cad E-box]” bind (Snail/ZF1-4 (His))?
Answer: binds

Question: Does “CCAGGACAATGCCGCCATTGTCCTGG (double strand) [Sox9 dimer consensus]” bind (Sox9/DIM+HMG (His); robust)?
Answer: binds

Question: Does “CCAGGACAATGCCGCCATTGTCCTGG (double strand) [Sox9 dimer consensus]” bind ([1]; not appreciably bound)?
Answer: no binding

Question: Does “CCAGGACAATGCCGCCATTGTCCTGG (double strand) [Sox9 dimer consensus]” bind (Snail/ZF1-4 (His); not appreciably bound)?
Answer: no binding

From publication doi:10.1101/2020.02.03.932962
